SMILES strings stand for the structures.

The record followed here is PMC10035389, “Safety, Tolerability, and Pharmacokinetics of TAK-931, a Cell Division Cycle 7 Inhibitor, in Patients with Advanced Solid Tumors: A Phase I First-in-Human Study” (Cancer Research Communications, 2022).

This data set relates to patients with advanced solid tumors. Description: Safety and tolerability (adverse events, NCI CTCAE v4.03), phase I dose-escalation study. The data set is classed as in vivo, human. As to conditions: all schedules, range. The source says: This was a phase I, open-label, dose-escalation study of single-agent TAK-931. Dose escalation of TAK-931 was cohort based with an adaptive design using Bayesian logistic regression modeling (BLRM) with pharmacokinetic guidance. BLRM also guided MTD estimation from the second dose. Patients were enrolled in one of four dosing schedules (A, B, D, or E; Supplementary Fig. S1) to receive TAK-931. Two additional schedules were planned (C and F) but no patients were enrolled. Schedule A included an initial accelerated escalation phase. […] A safety expansion was permitted once MTD had been determined. […]
DLTs included: cycle 1 grade ≥3 hematologic and non-hematologic events or grade 2 non-hematologic events considered by the investigator to be TAK-931-related, grade 2 ejection fraction decrease, >2 weeks delay in initiating cycle 2 (1 week for schedules D and E), and >50% TAK-931 dose reduction in cycle 1 due to treatment-related adverse events (AEs; see Supplementary Materials and Methods for full DLT criteria). Toxicity was evaluated by NCI Common Terminology Criteria for Adverse Events (version 4.03). Tumor response was measured using the RECIST (version 1.1) ([16]). […]

`Cc1n[nH]cc1-c1cc2nc([C@@H]3CC4CCN3CC4)[nH]c(=O)c2s1` [TAK-931, simurosertib] had a Mean treatment duration (4–469) of 86.3 days. Besides, the “Median relative dose intensity” value (29%–100%) is 95.0%.
